These are yes or no findings as the source states them, for the method shown. Some results given as binding are weak or reduced against the parent protein; the word gives no strength.
B1: Laz from Neisseria gonorrhoeae F62 (protein)
chain: CSQEPAAPAAEATPAGEAPASEAPAAEAAPADAAEAPAAGNCAATVESNDNMQFNTKDIQVSKACKEFTITLKHTGTQPKASMGHNLVIAKAEDMDGVFKDGVGAADTDYVKPDDARVVAHTKLIGGGEESSLTLDPAKLADGDYKFACTFPGHGALMNGKVTLVD

Protein sequences, listed by entry. Tags and fused reporters are not part of them. Lines headed by an entry give the natural chain unless they say otherwise; changes in a name come on top. Residues count along the entry.
Pf MSP1-42, C-terminal fragment of the P. falciparum merozoite surface protein MSP1 (Q8I0U8, residues 1327-1699): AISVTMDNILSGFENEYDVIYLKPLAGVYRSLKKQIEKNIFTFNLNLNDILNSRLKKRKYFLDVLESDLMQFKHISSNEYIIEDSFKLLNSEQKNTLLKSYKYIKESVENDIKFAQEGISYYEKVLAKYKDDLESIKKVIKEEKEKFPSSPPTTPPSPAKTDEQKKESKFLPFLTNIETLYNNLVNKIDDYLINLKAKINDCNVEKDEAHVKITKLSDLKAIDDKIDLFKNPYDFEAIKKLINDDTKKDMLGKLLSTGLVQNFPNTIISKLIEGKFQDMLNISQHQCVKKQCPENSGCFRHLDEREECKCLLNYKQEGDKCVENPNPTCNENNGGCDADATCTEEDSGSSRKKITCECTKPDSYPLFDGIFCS
Pf MSP1-19, C-terminal fragment of the P. falciparum merozoite surface protein MSP1 (Q8I0U8, residues 1607-1699): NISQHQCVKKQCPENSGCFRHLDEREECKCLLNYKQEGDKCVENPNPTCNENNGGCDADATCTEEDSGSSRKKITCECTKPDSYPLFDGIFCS
UniProt B3EWN9: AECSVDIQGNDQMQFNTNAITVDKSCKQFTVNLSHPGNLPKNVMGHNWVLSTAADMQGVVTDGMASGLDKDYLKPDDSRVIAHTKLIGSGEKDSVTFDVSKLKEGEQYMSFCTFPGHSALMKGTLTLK

Assays:
[1] = molecular target: Pf MSP1-19, C-terminal fragment of the P. falciparum merozoite surface protein MSP1 (Plasmodium falciparum) (UniProt Q8I0U8); test: SPR, MSP1-19 immobilized on CM5
[2] = molecular target: Pf MSP1-42, C-terminal fragment of the P. falciparum merozoite surface protein MSP1 (Plasmodium falciparum) (UniProt Q8I0U8); test: SPR, MSP1-42 immobilized on CM5

| Molecule | binding [1] | binding [2] |
| --- | --- | --- |
| GST-Azu 36-89 (GST fused to azurin amino acids 36 to 89) (from UniProt B3EWN9 36-89) | binds |  |
| GST-Azu 36-128 (GST fused to azurin amino acids 36 to 128) (from UniProt P00282 56-148) | binds |  |
| azurin from Pseudomonas aeruginosa (from UniProt P00282 21-148) | binds | binds |
| B1 | binds | binds |

— patent US20060251669A1
